Test results as given in the supplement of paper PMC10849652.
The other results are listed elsewhere or left out.

Amino acid sequences for entries named in this document (tags omitted). A change or cut given only in a name is not applied to a line headed by its entry.
UniProt Q9H8T0: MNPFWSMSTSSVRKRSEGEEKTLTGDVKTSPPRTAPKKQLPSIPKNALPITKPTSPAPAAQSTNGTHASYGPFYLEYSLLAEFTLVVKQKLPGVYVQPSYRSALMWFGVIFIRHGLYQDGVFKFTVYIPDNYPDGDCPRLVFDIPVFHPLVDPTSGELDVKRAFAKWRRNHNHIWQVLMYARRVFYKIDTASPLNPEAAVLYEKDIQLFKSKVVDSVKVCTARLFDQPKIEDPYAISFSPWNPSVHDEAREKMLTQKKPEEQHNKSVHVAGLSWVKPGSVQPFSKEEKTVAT
UniProt P20933: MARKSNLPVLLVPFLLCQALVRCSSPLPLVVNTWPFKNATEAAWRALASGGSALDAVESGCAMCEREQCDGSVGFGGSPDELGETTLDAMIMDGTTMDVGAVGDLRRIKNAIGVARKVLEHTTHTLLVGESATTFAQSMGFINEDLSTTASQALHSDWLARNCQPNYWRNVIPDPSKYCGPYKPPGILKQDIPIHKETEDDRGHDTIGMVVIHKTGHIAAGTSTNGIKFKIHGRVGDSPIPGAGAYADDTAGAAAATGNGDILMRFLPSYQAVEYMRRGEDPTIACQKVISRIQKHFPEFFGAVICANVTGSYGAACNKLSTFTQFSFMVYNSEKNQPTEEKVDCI
UniProt Q96P47: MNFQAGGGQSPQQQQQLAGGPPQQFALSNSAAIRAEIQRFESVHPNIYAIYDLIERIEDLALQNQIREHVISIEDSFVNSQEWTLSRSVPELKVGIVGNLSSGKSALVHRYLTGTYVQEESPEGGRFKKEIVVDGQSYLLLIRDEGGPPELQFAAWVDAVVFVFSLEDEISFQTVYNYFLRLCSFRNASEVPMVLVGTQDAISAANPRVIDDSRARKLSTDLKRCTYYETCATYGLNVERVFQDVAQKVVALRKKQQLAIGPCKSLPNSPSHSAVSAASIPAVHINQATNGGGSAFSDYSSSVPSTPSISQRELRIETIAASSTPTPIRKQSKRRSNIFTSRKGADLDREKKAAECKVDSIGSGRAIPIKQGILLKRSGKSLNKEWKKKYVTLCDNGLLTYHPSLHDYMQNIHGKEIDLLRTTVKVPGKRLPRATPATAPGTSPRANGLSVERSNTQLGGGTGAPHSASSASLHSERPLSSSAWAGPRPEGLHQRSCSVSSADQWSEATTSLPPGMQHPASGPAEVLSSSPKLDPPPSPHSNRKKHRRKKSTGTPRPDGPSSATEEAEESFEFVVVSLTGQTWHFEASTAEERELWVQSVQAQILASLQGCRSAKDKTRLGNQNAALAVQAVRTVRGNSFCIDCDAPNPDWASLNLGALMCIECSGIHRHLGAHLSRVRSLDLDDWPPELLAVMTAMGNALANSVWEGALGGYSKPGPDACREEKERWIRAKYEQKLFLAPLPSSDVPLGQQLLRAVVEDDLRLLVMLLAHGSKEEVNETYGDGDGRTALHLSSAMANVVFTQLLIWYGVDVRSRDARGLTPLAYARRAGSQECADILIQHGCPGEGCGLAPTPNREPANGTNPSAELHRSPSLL
UniProt Q63HM1: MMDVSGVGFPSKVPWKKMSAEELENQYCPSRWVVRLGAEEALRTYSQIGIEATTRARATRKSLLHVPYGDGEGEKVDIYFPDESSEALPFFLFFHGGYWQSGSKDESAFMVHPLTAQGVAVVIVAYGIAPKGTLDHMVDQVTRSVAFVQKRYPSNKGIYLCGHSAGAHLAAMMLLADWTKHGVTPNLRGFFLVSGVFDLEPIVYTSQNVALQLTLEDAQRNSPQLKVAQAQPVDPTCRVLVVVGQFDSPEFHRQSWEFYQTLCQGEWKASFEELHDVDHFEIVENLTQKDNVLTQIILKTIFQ
UniProt P13196: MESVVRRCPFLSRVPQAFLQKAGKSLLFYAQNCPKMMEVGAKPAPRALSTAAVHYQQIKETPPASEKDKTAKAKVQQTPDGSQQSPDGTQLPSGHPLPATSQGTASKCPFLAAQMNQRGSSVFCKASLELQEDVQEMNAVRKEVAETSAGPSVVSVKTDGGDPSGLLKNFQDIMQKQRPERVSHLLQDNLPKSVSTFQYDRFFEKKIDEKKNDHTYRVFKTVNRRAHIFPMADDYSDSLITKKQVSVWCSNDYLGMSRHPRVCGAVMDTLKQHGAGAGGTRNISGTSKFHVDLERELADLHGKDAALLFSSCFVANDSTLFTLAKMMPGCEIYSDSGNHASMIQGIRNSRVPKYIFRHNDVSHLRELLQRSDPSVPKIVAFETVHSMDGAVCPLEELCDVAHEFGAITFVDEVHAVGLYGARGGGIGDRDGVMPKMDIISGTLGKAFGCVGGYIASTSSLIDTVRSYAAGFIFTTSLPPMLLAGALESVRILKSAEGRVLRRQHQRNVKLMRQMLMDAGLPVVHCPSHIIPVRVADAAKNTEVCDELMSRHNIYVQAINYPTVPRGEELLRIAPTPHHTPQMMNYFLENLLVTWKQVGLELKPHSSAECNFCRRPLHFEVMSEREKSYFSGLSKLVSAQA
UniProt O94910: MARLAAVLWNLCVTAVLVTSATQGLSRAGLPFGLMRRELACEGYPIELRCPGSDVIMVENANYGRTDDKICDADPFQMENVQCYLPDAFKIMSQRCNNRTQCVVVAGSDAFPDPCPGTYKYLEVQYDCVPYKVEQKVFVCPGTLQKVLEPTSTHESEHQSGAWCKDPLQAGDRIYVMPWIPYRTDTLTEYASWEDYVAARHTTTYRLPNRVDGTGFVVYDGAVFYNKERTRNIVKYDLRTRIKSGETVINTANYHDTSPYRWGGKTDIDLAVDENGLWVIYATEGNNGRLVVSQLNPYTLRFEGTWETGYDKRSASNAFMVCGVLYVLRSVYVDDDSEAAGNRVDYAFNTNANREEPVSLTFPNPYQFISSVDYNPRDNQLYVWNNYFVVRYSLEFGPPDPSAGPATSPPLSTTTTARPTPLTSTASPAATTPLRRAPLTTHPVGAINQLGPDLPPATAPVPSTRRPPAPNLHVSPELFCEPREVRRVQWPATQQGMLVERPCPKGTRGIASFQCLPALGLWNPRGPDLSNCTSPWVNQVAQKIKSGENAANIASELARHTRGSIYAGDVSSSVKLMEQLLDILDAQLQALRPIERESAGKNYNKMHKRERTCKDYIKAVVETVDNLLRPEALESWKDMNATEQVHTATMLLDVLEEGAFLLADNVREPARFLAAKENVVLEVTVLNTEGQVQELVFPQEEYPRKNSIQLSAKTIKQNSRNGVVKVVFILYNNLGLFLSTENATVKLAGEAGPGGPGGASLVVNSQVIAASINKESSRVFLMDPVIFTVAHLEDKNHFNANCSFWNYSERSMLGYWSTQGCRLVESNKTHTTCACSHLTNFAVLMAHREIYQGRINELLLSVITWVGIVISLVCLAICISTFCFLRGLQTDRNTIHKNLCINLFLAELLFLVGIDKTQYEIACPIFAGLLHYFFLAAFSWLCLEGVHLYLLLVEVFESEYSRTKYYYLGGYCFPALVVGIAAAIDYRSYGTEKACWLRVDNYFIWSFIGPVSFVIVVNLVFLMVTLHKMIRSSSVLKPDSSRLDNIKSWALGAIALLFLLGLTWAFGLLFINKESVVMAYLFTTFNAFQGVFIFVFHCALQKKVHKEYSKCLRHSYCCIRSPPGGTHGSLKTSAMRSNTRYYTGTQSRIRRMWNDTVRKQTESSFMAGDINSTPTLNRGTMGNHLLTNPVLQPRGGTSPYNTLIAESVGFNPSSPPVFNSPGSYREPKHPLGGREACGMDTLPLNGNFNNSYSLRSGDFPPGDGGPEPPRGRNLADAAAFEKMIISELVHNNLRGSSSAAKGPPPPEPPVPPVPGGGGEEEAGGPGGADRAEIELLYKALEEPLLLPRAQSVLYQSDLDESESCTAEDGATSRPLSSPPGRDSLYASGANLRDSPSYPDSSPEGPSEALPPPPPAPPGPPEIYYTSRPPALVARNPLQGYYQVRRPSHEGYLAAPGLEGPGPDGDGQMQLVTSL
UniProt P35612: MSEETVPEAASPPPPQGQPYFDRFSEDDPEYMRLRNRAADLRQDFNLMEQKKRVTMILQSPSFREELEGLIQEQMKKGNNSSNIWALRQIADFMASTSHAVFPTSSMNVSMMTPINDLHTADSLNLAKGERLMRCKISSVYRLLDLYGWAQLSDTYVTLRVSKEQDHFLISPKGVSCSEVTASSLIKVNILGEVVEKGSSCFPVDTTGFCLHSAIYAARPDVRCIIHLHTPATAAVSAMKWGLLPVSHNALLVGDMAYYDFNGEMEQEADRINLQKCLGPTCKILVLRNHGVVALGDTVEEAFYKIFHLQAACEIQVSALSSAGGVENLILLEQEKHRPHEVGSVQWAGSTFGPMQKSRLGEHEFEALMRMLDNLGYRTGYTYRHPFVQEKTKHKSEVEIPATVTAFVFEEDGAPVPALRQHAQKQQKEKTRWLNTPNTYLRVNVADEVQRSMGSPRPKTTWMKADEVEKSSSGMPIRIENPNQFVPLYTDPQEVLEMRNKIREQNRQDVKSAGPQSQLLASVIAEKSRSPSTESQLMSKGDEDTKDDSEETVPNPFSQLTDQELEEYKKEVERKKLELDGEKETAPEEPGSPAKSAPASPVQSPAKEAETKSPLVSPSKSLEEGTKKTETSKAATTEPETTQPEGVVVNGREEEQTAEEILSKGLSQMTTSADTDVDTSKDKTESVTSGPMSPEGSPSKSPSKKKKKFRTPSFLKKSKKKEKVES
UniProt P17707: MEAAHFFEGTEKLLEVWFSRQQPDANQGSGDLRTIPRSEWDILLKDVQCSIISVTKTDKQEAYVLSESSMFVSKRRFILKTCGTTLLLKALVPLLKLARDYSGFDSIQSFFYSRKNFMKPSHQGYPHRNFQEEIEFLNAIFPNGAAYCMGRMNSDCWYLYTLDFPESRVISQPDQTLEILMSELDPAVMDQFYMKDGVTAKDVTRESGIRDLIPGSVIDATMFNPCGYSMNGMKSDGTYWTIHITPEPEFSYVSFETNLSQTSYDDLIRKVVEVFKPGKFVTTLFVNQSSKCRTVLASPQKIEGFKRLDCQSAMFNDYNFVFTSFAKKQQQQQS
UniProt Q8N302: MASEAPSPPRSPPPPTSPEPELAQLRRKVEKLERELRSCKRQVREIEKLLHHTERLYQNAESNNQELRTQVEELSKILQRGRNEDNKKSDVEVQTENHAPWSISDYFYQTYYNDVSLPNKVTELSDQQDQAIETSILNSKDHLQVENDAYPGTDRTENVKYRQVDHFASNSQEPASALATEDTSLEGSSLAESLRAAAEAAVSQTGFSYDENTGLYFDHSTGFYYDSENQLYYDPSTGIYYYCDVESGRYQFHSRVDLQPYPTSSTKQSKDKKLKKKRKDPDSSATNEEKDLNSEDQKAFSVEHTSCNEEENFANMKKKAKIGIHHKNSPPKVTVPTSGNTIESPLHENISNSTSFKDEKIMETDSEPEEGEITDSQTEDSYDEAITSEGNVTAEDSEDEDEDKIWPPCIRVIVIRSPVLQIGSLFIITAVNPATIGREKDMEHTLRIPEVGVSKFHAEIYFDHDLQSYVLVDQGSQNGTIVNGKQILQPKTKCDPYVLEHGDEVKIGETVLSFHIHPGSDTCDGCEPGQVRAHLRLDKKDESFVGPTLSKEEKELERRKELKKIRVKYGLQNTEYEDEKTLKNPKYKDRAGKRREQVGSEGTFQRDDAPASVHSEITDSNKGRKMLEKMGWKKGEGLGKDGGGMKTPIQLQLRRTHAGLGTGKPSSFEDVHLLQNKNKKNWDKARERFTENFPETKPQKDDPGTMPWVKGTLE
UniProt P55008: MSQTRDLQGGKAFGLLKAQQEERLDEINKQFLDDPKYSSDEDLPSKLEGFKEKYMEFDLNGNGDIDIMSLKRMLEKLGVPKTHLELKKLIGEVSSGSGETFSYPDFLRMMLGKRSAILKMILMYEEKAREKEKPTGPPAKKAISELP
UniProt P54922: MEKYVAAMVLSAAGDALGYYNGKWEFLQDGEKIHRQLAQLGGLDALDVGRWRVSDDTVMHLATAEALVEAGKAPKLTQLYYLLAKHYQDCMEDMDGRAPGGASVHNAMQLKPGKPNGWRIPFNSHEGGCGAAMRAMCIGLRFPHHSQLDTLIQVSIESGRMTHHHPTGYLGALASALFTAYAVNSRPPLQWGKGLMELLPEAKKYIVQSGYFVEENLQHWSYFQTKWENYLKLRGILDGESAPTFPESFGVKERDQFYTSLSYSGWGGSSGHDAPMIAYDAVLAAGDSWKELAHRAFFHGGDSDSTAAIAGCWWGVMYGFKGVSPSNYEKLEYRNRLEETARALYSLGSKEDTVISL
UniProt P07327: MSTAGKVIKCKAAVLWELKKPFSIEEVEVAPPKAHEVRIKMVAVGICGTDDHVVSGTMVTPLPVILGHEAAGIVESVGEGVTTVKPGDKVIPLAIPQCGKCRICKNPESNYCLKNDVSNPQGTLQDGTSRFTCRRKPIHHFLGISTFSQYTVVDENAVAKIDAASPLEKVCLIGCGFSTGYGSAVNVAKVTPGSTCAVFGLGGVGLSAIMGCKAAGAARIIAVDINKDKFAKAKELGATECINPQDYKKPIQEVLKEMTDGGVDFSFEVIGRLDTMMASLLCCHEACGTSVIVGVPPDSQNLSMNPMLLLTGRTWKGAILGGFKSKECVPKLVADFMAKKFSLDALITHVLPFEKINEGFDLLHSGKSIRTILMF

Columns and labels:
Assay in all cases: log2 fold change, soluble protein after heating vs DMSO (PISA); higher = thermal stabilisation; K562 cells, 10 uM, 30 min; active = over 0.2 and 3.5 SD of the protein, either way, in both replicates (recomputed)
sotrastaurin = compound: CN1CCN(c2nc(C3=C(c4c[nH]c5ccccc45)C(=O)NC3=O)c3ccccc3n2)CC1 [sotrastaurin]
Method in brief: (§1)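 Values are thermal stability changes relative to control samples and are taken from duplicates. They are stated as log2 fold changes. Before quantification by TMTpro 16plex LC-MS/MS with equalised channel sums, K562 cells at 2×10^6 cells/mL were treated with 10 μM compound for 30 min, heated in aliquots for 3 min across 48°C-58°C, pooled, extracted in PBS with 0.5% NP-40 at 4°C, and centrifuged at 21,000xg for 90 min to give the soluble supernatant.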

rucaparib = compound: CNCc1ccc(-c2[nH]c3cc(F)cc4c3c2CCNC4=O)cc1 [rucaparib]
Method in brief: as §1

encorafenib = compound: COC(=O)N[C@@H](C)CNc1nccc(-c2cn(C(C)C)nc2-c2cc(Cl)cc(NS(C)(=O)=O)c2F)n1 [encorafenib]
Method in brief: as §1

filanesib = compound: CON(C)C(=O)N1N=C(c2cc(F)ccc2F)S[C@@]1(CCCN)c1ccccc1 [filanesib]
Method in brief: as §1

alisertib = compound: COc1cc(Nc2ncc3c(n2)-c2ccc(Cl)cc2C(c2c(F)cccc2OC)=NC3)ccc1C(=O)O [alisertib]
Method in brief: as §1

[1] = compound: COc1cc2nc(-c3cc(F)ccc3O)nc(N[C@@H]3CNC[C@H]3C(C)(C)O)c2cc1OC
Method in brief: as §1

[2] = compound: COc1cccc2cc(-c3nc([C@H]4CC[C@H](C(=O)O)CC4)n4ncnc(N)c34)[nH]c12
Method in brief: as §1

lapatinib = compound: CS(=O)(=O)CCNCc1ccc(-c2ccc3ncnc(Nc4ccc(OCc5cccc(F)c5)c(Cl)c4)c3c2)o1 [lapatinib]
Method in brief: as §1

alvocidib = compound: CN1CC[C@H](c2c(O)cc(O)c3c(=O)cc(-c4ccccc4Cl)oc23)[C@H](O)C1 [alvocidib]
Method in brief: as §1

[3] = compound: CNC(=O)C1=CC=CC=C1NC2=NC(=NC=C2Cl)NC3=C(C=C(C=C3)N4CCOCC4)OC
Method in brief: as §1

zotarolimus = compound: CO[C@H]1C[C@@H]2CC[C@@H](C)[C@@](O)(O2)C(=O)C(=O)N2CCCC[C@H]2C(=O)O[C@H]([C@H](C)C[C@@H]2CC[C@H](n3cnnn3)[C@H](OC)C2)CC(=O)[C@H](C)/C=C(\C)[C@@H](O)[C@@H](OC)C(=O)[C@H](C)C[C@H](C)/C=C/C=C/C=C/1C [zotarolimus]
Method in brief: as §1

pictilisib = compound: CS(=O)(=O)N1CCN(Cc2cc3nc(-c4cccc5[nH]ncc45)nc(N4CCOCC4)c3s2)CC1 [pictilisib]
Method in brief: as §1

Tubastatin A = compound: CN1CCc2c(c3ccccc3n2Cc2ccc(C(=O)NO)cc2)C1 [Tubastatin A]
Method in brief: as §1

[4] = compound: COC1=CC=C(C=C1)CN2C=CC3=C2C=C(C=C3)C(=O)NO
Method in brief: as §1

idasanutlin = compound: COc1cc(C(=O)O)ccc1NC(=O)[C@@H]1N[C@@H](CC(C)(C)C)[C@](C#N)(c2ccc(Cl)cc2F)[C@H]1c1cccc(Cl)c1F [idasanutlin]
Method in brief: as §1

gefitinib = compound: COc1cc2ncnc(Nc3ccc(F)c(Cl)c3)c2cc1OCCCN1CCOCC1 [gefitinib]
Method in brief: as §1

defactinib = compound: CNC(=O)c1ccc(Nc2ncc(C(F)(F)F)c(NCc3nccnc3N(C)S(C)(=O)=O)n2)cc1 [defactinib]
Method in brief: as §1

[5] = compound: COC(=O)[C@H](CCSC)NC(=O)C1=C(C=C(C=C1)NC[C@H](CS)N)C2=CC=CC=C2
Method in brief: as §1

Measured: log2 fold change

AKTIP isoform 2 (UniProt Q9H8T0)
inactive: sotrastaurin -0.008 | rucaparib -0.027 | encorafenib -0.03 | filanesib -0.018 | alisertib 0.185 | [1] 0.033 | [2] -0.107 | lapatinib -0.015

AGA (UniProt P20933)
inactive: alvocidib 0.114 | [3] -0.019 | rucaparib -0.146 | encorafenib -0.038 | zotarolimus -0.1 | alisertib -0.102 | [1] -0.103 | [2] -0.05 | lapatinib 0.039 | pictilisib -0.004

AGAP3 isoform 4 (UniProt Q96P47)
inactive: sotrastaurin -0.233 | Tubastatin A 0.166 | [3] -0.033 | rucaparib 0.178 | encorafenib -0.104 | [4] -0.051 | filanesib 0.24 | zotarolimus -0.02 | idasanutlin 0.12 | alisertib -0.073 | [1] 0.079 | gefitinib 0.28 | [2] -0.1 | lapatinib 0.038

AFMID isoform 2 (UniProt Q63HM1)
inactive: defactinib -0.122 | [5] -0.025 | alisertib 0.015 | [2] 0.078

ALAS1 (UniProt P13196)
inactive: sotrastaurin 0.116 | [3] 0.105 | rucaparib -0.087 | encorafenib 0.047 | filanesib -0.073 | idasanutlin -0.151 | alisertib 0.027 | [1] 0.077 | [2] -0.039 | lapatinib 0.086 | pictilisib 0.396

ADGRL1 (UniProt O94910)
inactive: pictilisib 0.019

AEBP2 (UniProt Q6ZN18)
inactive: [3] -0.011 | rucaparib 0.022 | encorafenib 0.038 | [4] 0.127

ADNP (UniProt Q9H2P0)
inactive: sotrastaurin -0.024 | [4] -0.07 | filanesib 0.115 | idasanutlin 0.121 | alisertib 0.1 | gefitinib 0.047 | [2] -0.064 | pictilisib -0.374

ADPRM (UniProt Q3LIE5)
inactive: sotrastaurin 0.13 | [3] -0.053 | filanesib -0.074

ADD2 isoform 9 (UniProt P35612)
inactive: sotrastaurin -0.122 | filanesib 0.043 | alisertib -0.072 | [1] -0.053 | [2] 0.282 | lapatinib 0.04

ALMS1 (UniProt Q8TCU4)
inactive: [3] 0.02 | rucaparib -0.067 | encorafenib -0.034 | gefitinib 0.195 | pictilisib 0.133

AHSP (UniProt Q9NZD4)
inactive: [3] 0.155 | alisertib -0.145 | gefitinib 0.095 | [2] 0.002

AKNA (UniProt Q7Z591)
inactive: sotrastaurin -0.017 | [3] -0.074 | filanesib 0.04 | zotarolimus 0.01 | [1] 0.205 | lapatinib -0.059

ADGRE2 (UniProt Q9UHX3)
inactive: sotrastaurin -0.019 | Tubastatin A 0.002 | [3] 0.003 | defactinib 0.043 | rucaparib 0 | encorafenib 0.111 | [5] -0.008 | [4] -0.012 | filanesib -0.025 | idasanutlin 0.012 | alisertib 0.535 | [1] -0.03 | gefitinib 0.015 | [2] -0.057 | lapatinib -0.03 | pictilisib 0

AMD1 (UniProt P17707)
inactive: sotrastaurin -0.017 | Tubastatin A 0.014 | [3] 0.02 | defactinib 0.082 | rucaparib -0.08 | encorafenib 0.023 | [5] 0.042 | [4] -0.009 | filanesib -0.128 | idasanutlin -0.193 | alisertib -0.023 | [1] 0.024 | gefitinib 0.041 | [2] 0.058 | lapatinib -0.034 | pictilisib 0.043

AGTRAP isoform 2 (UniProt Q6RW13)
inactive: Tubastatin A -0.057 | [3] -0.031 | rucaparib -0.11 | encorafenib -0.047 | pictilisib -0.004

AKAP11 (UniProt Q9UKA4)
inactive: sotrastaurin -0.13 | alvocidib 0.13 | rucaparib 0.467 | encorafenib 0.306 | [4] -0.097 | filanesib 0.228 | zotarolimus -0.025 | pictilisib -0.015

AGGF1 (UniProt Q8N302)
inactive: [3] -0.175 | alisertib -0.019 | [2] -0.022

ALDH1L1 isoform 3 (UniProt O75891)
inactive: sotrastaurin 0.097 | filanesib -0.137

Two successive entries from above, for reference:
ADGRL1 (UniProt O94910)
inactive: pictilisib 0.019

AEBP2 (UniProt Q6ZN18)
inactive: [3] -0.011 | rucaparib 0.022 | encorafenib 0.038 | [4] 0.127

More results

ANAPC15 isoform 2 (UniProt P60006)
inactive: alvocidib 0.273 | Tubastatin A 0.037 | [3] -0.078 | defactinib 0.143 | rucaparib 0.291 | encorafenib 0.087 | [5] -0.024 | [4] 0.063 | zotarolimus 0.015 | idasanutlin 0.036 | [1] -0.035 | lapatinib 0.042

ALDOB (UniProt P05062)
inactive: sotrastaurin -0.015 | filanesib -0.144

ADCK5 (UniProt Q3MIX3)
inactive: sotrastaurin -0.012 | Tubastatin A -0.043 | [3] -0.101 | defactinib -0.005 | rucaparib -0.083 | encorafenib 0.063 | [5] -0.021 | [4] -0.036 | filanesib 0.103

AIF1 (UniProt P55008)
inactive: sotrastaurin 0.025 | [3] 0.15 | defactinib 0.032 | [5] -0.046 | filanesib 0.038 | idasanutlin 0.052 | [1] 0.083 | lapatinib 0.053

ADPRH (UniProt P54922)
inactive: sotrastaurin -0.067 | Tubastatin A 0.213 | [3] -0.011 | defactinib -0.076 | [5] 0.028 | [4] 0.098 | filanesib -0.088 | alisertib -0.099 | [1] 0.135 | gefitinib 0.013 | [2] -0.033 | lapatinib 0.05 | pictilisib -0.107

ADH1A (UniProt P07327)
inactive: sotrastaurin 0.113 | [4] -0.007 | filanesib -0.021

ALDH2 isoform 2 (UniProt P05091)
inactive: sotrastaurin 0.161 | Tubastatin A 0.005 | defactinib 0.06 | rucaparib -0.255 | encorafenib 0.097 | [5] -0.003 | filanesib 0.013 | idasanutlin 0 | [1] 0.166 | lapatinib -0.266 | pictilisib -0.035
